Tested on: human platelets
Assay: Loading of platelets with trehalose (anthrone quantification)
Type: cell-based
Conditions: for loading efficiency of trehalose: 50 mM external trehalose
Method: Washing of Platelets. Platelet concentrations were obtained from the Sacramento blood center or from volunteers in our laboratory. Platelet rich plasma was centrifuged for 8 minutes at 320×g to remove erythrocytes and leukocytes. The supernatant was pelleted and washed two times (480×g for 22 minutes, 480×g for 15 minutes) in buffer A (100 MM NaCl, 10 MM KCl, 10 mM EGTA, 10 mM imidazole, pH 6.8). Platelet counts were obtained on a Coulter counter T890 (Coulter, Inc., Miami, Fla.).
Loading of Platelets with Trehalose. Washed platelets in a concentration of 1-2 10^9 platelets/ml were incubated at various temperatures in the presence of 1-20 mg/ml trehalose. Incubation temperatures were chosen from 4° C. to 37° C. Incubation times were varied from 0.5 to 4 hours. After incubation the platelet solutions were washed in buffer A two times (by centrifugation at 14,000 RPM for 20 s in a table centrifuge). Platelet counts were obtained on a coulter counter. Platelets were pelleted (45 S at 14,000 RPM) and sugars were extracted from the pellet using 80% methanol. The samples were heated for 30 minutes at 80° C. The methanol was 10 evaporated with nitrogen, and the samples were kept dry and redissolved in H2O prior to analysis. The amount of trehalose in the platelets was quantified using the anthrone reaction (Umbreit et al., Mamometric and Biochemical Techniques, 5th Edition, 1972). Samples were redissolved in 3 ml H2O and 6 ml anthrone reagents (2 g anthrone dissolved in 10M sulfuric acid). After vortex mixing, the samples were placed in a boiling water bath for 3 minutes. Then the samples were cooled on ice and the absorbance was measured at 620 nm on a Perkin Elmer spectrophotometer. The amount of platelet associated trehalose was determined using a standard curve of trehalose.
Quantification of Trehalose and LYCH Concentration. Uptake was calculated for each sample as micrograms of trehalose or LYCH per platelet. The internal trehalose concentration was calculated assuming a platelet radius of 1.2 μm and by assuming that 50% of the platelet volume is taken up by the cytosol (rest is membranes). The loading efficiency was determined from the cytosolic trehalose or LYCH concentration and the concentration in the loading buffer.

With `OC[C@H]1O[C@H](O[C@H]2O[C@H](CO)[C@@H](O)[C@H](O)[C@H]2O)[C@H](O)[C@@H](O)[C@@H]1O` [trehalose] the “external trehalose giving highest internal trehalose concentration” value was 50 mM, the “loading efficiency of trehalose” value (4 hour incubation, 22° C. and below) was “below 5%” and the “loading efficiency of trehalose” value (4 hours, 37° C.) was 35%. For the same compound, the cytosolic concentration (loading efficiency 61%, external concentration 25 mM) was 15 mM and the loading efficiency (time course at 37° C., 4 hours incubation (external 25 mM)) was 61%.
